Data on two substances can be found in paper PMC7450093.

Protein sequences, listed by entry. Tags and fused reporters are not part of them. Lines headed by an entry give the natural chain unless they say otherwise; changes in a name come on top.
UniProt P03126: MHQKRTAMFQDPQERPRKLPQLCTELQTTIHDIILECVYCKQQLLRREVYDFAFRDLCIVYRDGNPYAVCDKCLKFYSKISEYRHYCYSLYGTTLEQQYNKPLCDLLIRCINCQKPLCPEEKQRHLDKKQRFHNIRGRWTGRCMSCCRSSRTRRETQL
UniProt O95831: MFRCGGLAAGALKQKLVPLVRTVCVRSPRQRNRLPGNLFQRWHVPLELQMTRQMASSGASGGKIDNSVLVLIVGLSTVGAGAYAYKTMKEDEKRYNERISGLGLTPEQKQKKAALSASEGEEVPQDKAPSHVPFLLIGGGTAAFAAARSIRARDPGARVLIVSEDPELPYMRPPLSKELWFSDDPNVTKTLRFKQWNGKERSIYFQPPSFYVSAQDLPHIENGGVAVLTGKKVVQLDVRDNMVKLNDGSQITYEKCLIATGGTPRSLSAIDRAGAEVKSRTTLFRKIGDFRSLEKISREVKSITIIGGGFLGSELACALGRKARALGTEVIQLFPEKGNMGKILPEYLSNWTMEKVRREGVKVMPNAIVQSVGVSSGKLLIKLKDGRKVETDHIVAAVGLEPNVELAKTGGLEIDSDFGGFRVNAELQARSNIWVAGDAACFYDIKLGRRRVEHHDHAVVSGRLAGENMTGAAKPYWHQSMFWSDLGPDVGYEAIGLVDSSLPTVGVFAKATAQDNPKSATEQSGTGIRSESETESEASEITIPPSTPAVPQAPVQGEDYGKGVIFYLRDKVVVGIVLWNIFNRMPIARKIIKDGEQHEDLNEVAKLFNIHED

The target in this assay is HPV16 E6 fused with a streptavidin-binding protein (SBP)-tag at the C-terminus (human papillomavirus type 16 (HPV16)) (UniProt P03126). Kind of assay: pull-down.

These are yes or no findings as the source states them, for the method shown. Binding seen in cells or lysates may run through a third protein. Some binding calls cover weakened binding; strength is not graded here.

With “Apoptotic form of AIF (Δ102AIF), ubiquitin polypeptide-fused, with an HA-tag at the C-terminus (from UniProt O95831 103-613) (domain or fragment)”, the binding result is listed as “binds”.

Turning to “Mature form of AIF (Δ54AIF), ubiquitin polypeptide-fused, with an HA-tag at the C-terminus (from UniProt O95831 55-613) (domain or fragment)”, the binding result is given as “binds”.
